Experimental data as given in patent US5955497A, “Bioactive acetogenins” (Purdue Research Foundation, priority 1998, dated 1999).
At least one structure is not confirmed: it was looked up by name or label, or the drawing left a doubt.

Tested on: MCF-7 (human breast carcinoma)
Assay: seven-day in vitro cytotoxicity, MCF-7
Format: cell-based
Conditions: MCF-7, seven-day; 10080 min

Compound: CCCCCCCCCC[C@H](O)[C@H]1CC[C@H]([C@H]2CC[C@H]([C@H](O)CCCCCCCC[C@@H](O)CC3=C[C@H](C)OC3=O)O2)O1 [Compound 2, molvizarin]
- cytotoxicity ED60, MCF-7: > 1 g/mL
